Experimental data as given in PMC2743825.
No constants are given. Whether binding was seen depends on the method and setting. For some assays here: In cells and extracts the contact can be indirect. Some binding calls cover weakened binding; strength is not graded here.

Sequences of proteins named here, by UniProt entry; tags and fusion partners are left off.
UniProt P05205: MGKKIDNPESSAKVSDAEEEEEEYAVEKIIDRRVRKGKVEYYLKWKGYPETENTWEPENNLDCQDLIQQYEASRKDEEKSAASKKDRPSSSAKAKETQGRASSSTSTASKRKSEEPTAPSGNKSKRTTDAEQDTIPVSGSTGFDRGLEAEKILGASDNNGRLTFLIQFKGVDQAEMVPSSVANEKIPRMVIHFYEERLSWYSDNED

Key:
[1] = target: Heterochromatin Protein 1 (HP1a) (Drosophila melanogaster) (UniProt P05205); assay: co-IP; immunoprecipitation with monoclonal C1A9 anti-HP1a antibody (50 µg for 1 ml of hnRNP extract), western blot of the precipitate
[2] = target: FLAG-tagged HP1a (Drosophila melanogaster) (UniProt P05205); assay: native gel or EMSA; anti-FLAG immunopurified fractions of nuclear lysates of FLAG-HP1a transfected S2 cells resolved by 6% native-PAGE, before and after RNAse A treatment; western blot with anti-FLAG, anti-HRB87F, anti-DDP1, anti-PEP
[3] = target: FLAG-tagged HP1a (Drosophila melanogaster) (UniProt P05205); assay: condition: only in the soluble nuclear extract (nucleoplasmic fraction), not in the total nuclear lysate; co-IP; anti-FLAG immunopurification (protein G Dynabeads, elution with 3x FLAG peptide) from soluble nuclear extract (nucleoplasmic fraction) of transfected S2 cells; western blot
[4] = target: FLAG-tagged HP1a (Drosophila melanogaster) (UniProt P05205); assay: co-IP; anti-FLAG immunopurification (protein G Dynabeads, elution with 3x FLAG peptide) from total nuclear lysate (sonicated, soluble chromatin fraction) of transfected S2 cells; lysis buffer 50 mM Tris-HCl, 150 mM NaCl, 0.5% NP40; western blot

B1: PEP (Peptide on Ecdysone Puffs) (protein, UniProt P41073 1-716)
chain: MVSVKVNGNPQNRLVNNAKVNGNMAFRGNQNRNRNFGGGNNNYGGPMGANRMGGMNMSPWESQNPGGGQFGNNMRQGGGQMNAQAINLANNLLNNLFRNQNPPSLLDLPRGGGGMGNRNQRGGPMVSRGGGAGNRLNNRRGQGGGFQNRGATGSGPKPPPKQGGGGIRKQNAFDRAKKLLAKNANQNKKKEPTPGEKKIESPTKESPYASVPNDMFYCHLCKKHMWDANSFENHIKGRTHLMMREGIEESYRLKANMIRQEAKIAEQLKSIEFDRLKRMGKSKQRQLDYCTMCDLNFHGHISTHRKSEGHLQLKKFLHPKCIECNKEFATRIDYDTHLLSAEHLKKAAENNTKVGERKRQTLPISTEEEETRDLRLPQKRKKKPVKKEGEAADGEAKKEGAGDGEGAEGDEAEGEEAKEGEEAADETKEGDELNESQEEEEVALPVDPEDCILDFNDGDEIPSEVDTRLPKYNWQRAVGPGLISKLECYECSVCSKFFDTEVTAEIHSRTATHHRNFLKFINEKSSDTKIAQKRAAAALEENERKKRKVEEAEAPAAEGAAEETTEGAEGELYDPSEATGDDEDVEMVDDNAEGEGEGEGDEEAEAEVEEDGAGQDNGEEEMEAQEEEGQEGEQEPEPEPAPVQTPAPAEPAPPAKTPAKTPTKAAAPAAVASPAAAATSADASPSPAKKATPARAAAGAKATPQRQRARGRYNRY
In the case of B1, the binding [1] is reported as “binds”, the binding [2] is reported as “binds” and the binding [3] is reported as “no binding”. The binding [4] was “binds”.

B2: HRB87F (protein, UniProt P48810 1-385)
chain: MAEQNDSNGNYDDGEEITEPEQLRKLFIGGLDYRTTDDGLKAHFEKWGNIVDVVVMKDPKTKRSRGFGFITYSQSYMIDNAQNARPHKIDGRTVEPKRAVPRQEIDSPNAGATVKKLFVGGLRDDHDEECLREYFKDFGQIVSVNIVSDKDTGKKRGFAFIEFDDYDPVDKIILQKTHSIKNKTLDVKKAIAKQDMDRQGGGGGRGGPRAGGRGGQGDRGQGGGGWGGQNRQNGGGNWGGAGGGGGFGNSGGNFGGGQGGGSGGWNQQGGSGGGPWNNQGGGNGGWNGGGGGGYGGGNSNGSWGGNGGGGGGGGGFGNEYQQSYGGGPQRNSNFGNNRPAPYSQGGGGGGFNKGNQGGGQGFAGNNYNTGGGGQGGNMGGGNRRY
B2 was tested, and the binding [1] was “binds”, the binding [2] was “binds” and the binding [3] was “no binding”. The binding [4] was “binds”.
